Reference: PubChem BioAssay AID2685 (National Center for Advancing Translational Sciences (NCATS), 2010)
The other results are listed elsewhere or left out. Further columns of the screen follow, without active or inactive calls. Compounds called inactive in the main read-out are mostly missing here. Potencies come from curve fits of mixed quality, noted in brackets.

Test: qHTS Assay for Lipid Storage Modulators in Drosophila S3 Cells;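 for cell number change: cells counted by Cell Tracker Red CMTPX staining in the red channel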
Conditions: BODIPY lipid droplet fluorescence, 18-24 h; for cell number change: measured here: cell count max response, cells fed with added oleic acid
Outline: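 Drosophila S3 cells loaded with oleic acid (400 uM, as added) and compounds at several concentrations; lipid droplets imaged by 488-nm laser-scanning cytometry, 500–530 nm intensity and object ratio to cell channel. Percent activity normalized to 20 uM Triacsin C.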

[1] = measured here: lipid fluorescence (Fed channel) AC50, cells fed with added oleic acid
[2] = measured here: cell number channel AC50, cells fed with added oleic acid

| Structure (SMILES) | cell number change | AC50 [1] | AC50 [2] |
| --- | --- | --- | --- |
| COc1cccc(/C=C/C(=O)OCC(=O)Nc2cccc(S(=O)(=O)N3CCOCC3)c2)c1OC | 47.6% | 18.4 µM [rising, single point] |  |
| OCc1cn(-c2ccccc2)nc1-c1ccco1 | 102% | 0.731 µM [rising, partial curve, poor fit] | 29.1 µM [rising, single point] |
| CCN1C(=NCc2ccco2)N[C@@H](c2cccc(F)c2)C(C(=O)OC)=C1C | 15.3% |  |  |
| COC(=O)COc1cccc(-n2cnnn2)c1 | 2.47% | 4.11 µM [falling, single point] |  |
| COc1ccccc1C(=O)NCCSCc1ccccc1Cl | -22.8% |  |  |
| CC(C)(C)c1ccc(-c2cc(N)n[nH]2)cc1 | -1.84% | 6.51 µM [rising, partial curve, poor fit] |  |
| Cc1[nH]c2ccc(-c3nnc(SCC(=O)NCc4ccco4)n3Cc3ccccc3)cc2c1C | -19.6% | 20.6 µM [falling, single point] |  |
| O=[N+]([O-])c1ccc(N/N=C2\CC3CC=CC23)cc1 (stereo not drawn) | 39.7% |  | 29.1 µM [rising, single point] |
| COC(=O)c1ccc(NC(=O)Cc2ccc(F)cc2)cc1 | 14.3% | 0.146 µM [rising, full curve, poor fit] |  |
| c1ccc(-c2nc3ccccc3[nH]2)nc1 | 6.45% | 0.00461 µM [rising, full curve, poor fit] |  |
| Cc1cccc(N2CCN(C(=O)c3c(-c4ccccc4)noc3C)CC2)c1C | -4.11% | 29.1 µM [falling, single point] |  |
| O=C(CCn1nc(-c2ccccc2)c2ccccc2c1=O)NCC1CCCO1 (stereo not drawn) | 1.4% |  |  |
| Cc1nc(SCC(=O)Nc2nnc(C(C)C)s2)n[nH]1 | 21% |  |  |
| Cc1c(C(=O)NCC2CCCO2)oc2c(Cl)cccc12 (stereo not drawn) |  | 6.51 µM [rising, single point] |  |
| O=C(NCCO)c1cccc(Nc2nc(-c3ccccc3)c3cc(Cl)ccc3n2)c1 | -23.4% | 29.1 µM [falling, single point] |  |
| COC(=O)c1cc2ccc(OC)c(OC)c2c(=O)s1 | 148% | 2.06 µM [rising, partial curve] |  |
| COC(=O)c1ccc(COC(=O)CNC(=O)c2ccco2)cc1 | -5.73% | 0.259 µM [falling, partial curve, poor fit] |  |

| Structure (SMILES) | cell number change | AC50 [1] | AC50 [2] |
| --- | --- | --- | --- |
| COc1cccc(-c2nc(CS(=O)CC(=O)NC3CC3)c(C)o2)c1 (stereo not drawn) | 12.9% | 4.11 µM [rising, partial curve] |  |
| C=CCn1c(SCC(=O)NCc2ccco2)nnc1-c1ccc2ccccc2n1 | -10.8% |  |  |
| O=C1SC(SC(=Nc2ccccc2)Nc2ccccc2)C(=O)N1c1ccccc1 (stereo not drawn) | -25.7% | 4.11 µM [falling, full curve, poor fit] | 4.11 µM [falling, full curve, poor fit] |
| O=C(O)c1cc2n(n1)C(C(F)(F)F)CC(c1ccco1)N2 (stereo not drawn) | -10.3% | 29.1 µM [falling, single point] |  |
| CCc1cccc2c1NC(=O)[C@]21[C@@H]2C(=O)N(Cc3ccccc3)C(=O)[C@@H]2[C@@H]2CCCN21 | 8.29% | 20.6 µM [falling, partial curve] |  |
| O=C(Nn1c(C2CC2)nc2ccccc2c1=O)c1ccco1 |  | 6.51 µM [falling, single point] |  |
| Cc1[nH]c2ccccc2c1C(=O)CSC(=S)N(C)C |  | 0.291 µM [rising, partial curve, poor fit] |  |
| COc1ccc(CNC(=O)C2CCC(=O)N2C(C)C)c(OC)c1 (stereo not drawn) | -12.9% |  |  |
| COc1cccc(NC(=O)CN(C)C(=O)c2ccccc2OCC(=O)Nc2cccc(C(F)(F)F)c2)c1 | 32.6% |  | 6.51 µM [rising, full curve, poor fit] |
| COc1cc(C)c(CN2CCSCC2)cc1C | -9.49% | 0.58 µM [falling, single point] |  |
| COc1ccc(NC(=O)c2cc(Br)ccc2Cl)c(OC)c1 |  | 6.51 µM [rising, partial curve] |  |
| COc1cccc(OC)c1C(=O)Nc1ccc(NC(=O)c2ccco2)cc1 | 10.3% | 6.51 µM [rising, partial curve] |  |
| CC1CCCN(C(=O)C2(NC(=O)Nc3cccc(F)c3)CCCCC2)C1 (stereo not drawn) | 9.68% | 3.26 µM [rising, full curve] |  |
| O=[N+]([O-])c1ccc(C(O)C23CN4CN(CN(C4)C2)C3)cc1 (stereo not drawn) | 24.9% | 32.6 µM [rising, single point] |  |
| CN(C[C@H](c1ccccc1)N(C[C@H](Cc1ccccc1)N(CCc1ccccc1)N=O)N=O)N=O | 11.1% | 7.31 µM [rising, partial curve, poor fit] |  |
| Cc1csc(SCC(=O)Nc2cccc(C)c2C)n1 | 12% | 2.59 µM [rising, partial curve, poor fit] |  |

Part of the list above with just AC50 [1] and cell number change:

| Structure (SMILES) | AC50 [1] | cell number change |
| --- | --- | --- |
| CCc1cccc2c1NC(=O)[C@]21[C@@H]2C(=O)N(Cc3ccccc3)C(=O)[C@@H]2[C@@H]2CCCN21 | 20.6 µM [falling, partial curve] | 8.29% |
| O=C(Nn1c(C2CC2)nc2ccccc2c1=O)c1ccco1 | 6.51 µM [falling, single point] |  |
